Experimental findings from paper doi:10.1101/2022.12.19.520889 are described below.

Amino acid sequences for entries named in this document (tags omitted). Residues count along the entry.
UniProt P10721, residues 26-976: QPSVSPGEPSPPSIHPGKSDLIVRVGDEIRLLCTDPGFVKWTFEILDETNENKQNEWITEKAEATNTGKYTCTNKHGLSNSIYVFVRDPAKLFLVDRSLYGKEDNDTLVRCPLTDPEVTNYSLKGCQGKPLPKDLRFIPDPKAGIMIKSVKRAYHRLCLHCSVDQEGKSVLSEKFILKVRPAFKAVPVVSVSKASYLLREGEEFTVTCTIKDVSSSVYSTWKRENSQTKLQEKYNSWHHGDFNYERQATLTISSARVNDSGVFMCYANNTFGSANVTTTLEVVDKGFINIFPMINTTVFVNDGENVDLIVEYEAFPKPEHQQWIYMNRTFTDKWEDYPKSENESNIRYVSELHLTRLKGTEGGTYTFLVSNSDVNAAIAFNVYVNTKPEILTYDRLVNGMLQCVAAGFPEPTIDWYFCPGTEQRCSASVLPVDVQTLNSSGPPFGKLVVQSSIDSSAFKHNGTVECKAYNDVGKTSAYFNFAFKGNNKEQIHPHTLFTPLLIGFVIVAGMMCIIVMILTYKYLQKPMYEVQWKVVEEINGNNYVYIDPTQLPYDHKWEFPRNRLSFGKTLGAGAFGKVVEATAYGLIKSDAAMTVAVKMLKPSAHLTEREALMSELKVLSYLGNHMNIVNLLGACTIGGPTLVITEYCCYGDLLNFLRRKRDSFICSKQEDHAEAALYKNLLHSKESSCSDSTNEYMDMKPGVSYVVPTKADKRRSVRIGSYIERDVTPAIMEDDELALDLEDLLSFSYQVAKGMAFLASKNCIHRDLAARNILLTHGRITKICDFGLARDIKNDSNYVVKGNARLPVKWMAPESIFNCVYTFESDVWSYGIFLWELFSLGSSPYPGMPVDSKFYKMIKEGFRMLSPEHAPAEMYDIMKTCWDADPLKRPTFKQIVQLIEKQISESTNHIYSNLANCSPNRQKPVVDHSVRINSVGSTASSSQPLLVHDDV

Results are given in words; binding and its absence hold for the method and conditions named. In cells and extracts the contact can be indirect. Some binding calls cover weakened binding; strength is not graded here.

What all share (assay): co-IP
Assay [1] addresses wild-type KIT of M-07e cells (acute megakaryoblastic leukemia) (human (endogenous in M-07e)) (UniProt P10721).
Assay [2] deals with T1, GGA1 (Golgi-associated, γ-adaptin ear-containing, ARF-binding protein 1) (human (endogenous in GIST-T1 and leukemia cells)), Q9UJY5.
T1 chain: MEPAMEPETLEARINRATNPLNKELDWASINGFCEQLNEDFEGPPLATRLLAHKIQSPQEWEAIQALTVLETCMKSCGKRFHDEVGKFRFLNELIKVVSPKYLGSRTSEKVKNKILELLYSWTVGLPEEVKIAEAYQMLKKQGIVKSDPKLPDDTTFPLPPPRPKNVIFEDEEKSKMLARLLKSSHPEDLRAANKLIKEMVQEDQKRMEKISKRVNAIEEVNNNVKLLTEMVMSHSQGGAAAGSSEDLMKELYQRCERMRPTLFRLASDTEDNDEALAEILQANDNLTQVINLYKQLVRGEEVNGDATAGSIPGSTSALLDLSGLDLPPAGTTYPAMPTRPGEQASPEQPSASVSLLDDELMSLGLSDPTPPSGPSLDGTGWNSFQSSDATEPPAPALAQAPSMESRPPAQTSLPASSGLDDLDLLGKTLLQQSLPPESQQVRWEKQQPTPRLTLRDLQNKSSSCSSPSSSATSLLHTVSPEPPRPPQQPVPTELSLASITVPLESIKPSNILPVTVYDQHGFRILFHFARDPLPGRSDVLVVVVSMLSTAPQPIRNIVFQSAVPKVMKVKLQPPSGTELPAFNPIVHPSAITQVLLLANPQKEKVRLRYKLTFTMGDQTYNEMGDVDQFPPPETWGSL
The note with it: remark: other sources report otherwise.

The target in assay [3] is T1, GGA1 (Golgi-associated, γ-adaptin …). The note with it: remark: other sources report otherwise.

B1: protein kinase D2 (PKD2) (enzyme, UniProt Q9BZL6 1-878)
chain: MATAPSYPAGLPGSPGPGSPPPPGGLELQSPPPLLPQIPAPGSGVSFHIQIGLTREFVLLPAASELAHVKQLACSIVDQKFPECGFYGLYDKILLFKHDPTSANLLQLVRSSGDIQEGDLVEVVLSASATFEDFQIRPHALTVHSYRAPAFCDHCGEMLFGLVRQGLKCDGCGLNYHKRCAFSIPNNCSGARKRRLSSTSLASGHSVRLGTSESLPCTAEELSRSTTELLPRRPPSSSSSSSASSYTGRPIELDKMLLSKVKVPHTFLIHSYTRPTVCQACKKLLKGLFRQGLQCKDCKFNCHKRCATRVPNDCLGEALINGDVPMEEATDFSEADKSALMDESEDSGVIPGSHSENALHASEEEEGEGGKAQSSLGYIPLMRVVQSVRHTTRKSSTTLREGWVVHYSNKDTLRKRHYWRLDCKCITLFQNNTTNRYYKEIPLSEILTVESAQNFSLVPPGTNPHCFEIVTANATYFVGEMPGGTPGGPSGQGAEAARGWETAIRQALMPVILQDAPSAPGHAPHRQASLSISVSNSQIQENVDIATVYQIFPDEVLGSGQFGVVYGGKHRKTGRDVAVKVIDKLRFPTKQESQLRNEVAILQSLRHPGIVNLECMFETPEKVFVVMEKLHGDMLEMILSSEKGRLPERLTKFLITQILVALRHLHFKNIVHCDLKPENVLLASADPFPQVKLCDFGFARIIGEKSFRRSVVGTPAYLAPEVLLNQGYNRSLDMWSVGVIMYVSLSGTFPFNEDEDINDQIQNAAFMYPASPWSHISAGAIDLINNLLQVKMRKRYSVDKSLSHPWLQEYQTWLDLRELEGKMGERYITHESDDARWEQFAAEHPLPGSGLPTDRDLGGACPPQDHDMQGLAERISVL
Consider B1, for which, in assay [1], the binding entry is reported as “no binding”.

B2: γ-adaptin (AP1 component), O43747 1-822 (protein)
chain: MPAPIRLRELIRTIRTARTQAEEREMIQKECAAIRSSFREEDNTYRCRNVAKLLYMHMLGYPAHFGQLECLKLIASQKFTDKRIGYLGAMLLLDERQDVHLLMTNCIKNDLNHSTQFVQGLALCTLGCMGSSEMCRDLAGEVEKLLKTSNSYLRKKAALCAVHVIRKVPELMEMFLPATKNLLNEKNHGVLHTSVVLLTEMCERSPDMLAHFRKLVPQLVRILKNLIMSGYSPEHDVSGISDPFLQVRILRLLRILGRNDDDSSEAMNDILAQVATNTETSKNVGNAILYETVLTIMDIKSESGLRVLAINILGRFLLNNDKNIRYVALTSLLKTVQTDHNAVQRHRSTIVDCLKDLDVSIKRRAMELSFALVNGNNIRGMMKELLYFLDSCEPEFKADCASGIFLAAEKYAPSKRWHIDTIMRVLTTAGSYVRDDAVPNLIQLITNSVEMHAYTVQRLYKAILGDYSQQPLVQVAAWCIGEYGDLLVSGQCEEEEPIQVTEDEVLDILESVLISNMSTSVTRGYALTAIMKLSTRFTCTVNRIKKVVSIYGSSIDVELQQRAVEYNALFKKYDHMRSALLERMPVMEKVTTNGPTEIVQTNGETEPAPLETKPPPSGPQPTSQANDLLDLLGGNDITPVIPTAPTSKPSSAGGELLDLLGDINLTGAPAAAPAPASVPQISQPPFLLDGLSSQPLFNDIAAGIPSITAYSKNGLKIEFTFERSNTNPSVTVITIQASNSTELDMTDFVFQAAVPKTFQLQLLSPSSSIVPAFNTGTITQVIKVLNPQKQQLRMRIKLTYNHKGSAMQDLAEVNNFPPQSWQ
As to B2, the binding result in assay [2] and in assay [3] was “binds” each time.
